Laboratory results from publication PMC7140707.
Results are given in words; binding and its absence hold for the method and conditions named. In cells and extracts the contact can be indirect. Some entries that bind do so weakly or less than the wild type. Tags and fused reporters may be left off the sequences shown.

Amino acid sequences for entries named in this document (tags omitted).
UniProt Q03558: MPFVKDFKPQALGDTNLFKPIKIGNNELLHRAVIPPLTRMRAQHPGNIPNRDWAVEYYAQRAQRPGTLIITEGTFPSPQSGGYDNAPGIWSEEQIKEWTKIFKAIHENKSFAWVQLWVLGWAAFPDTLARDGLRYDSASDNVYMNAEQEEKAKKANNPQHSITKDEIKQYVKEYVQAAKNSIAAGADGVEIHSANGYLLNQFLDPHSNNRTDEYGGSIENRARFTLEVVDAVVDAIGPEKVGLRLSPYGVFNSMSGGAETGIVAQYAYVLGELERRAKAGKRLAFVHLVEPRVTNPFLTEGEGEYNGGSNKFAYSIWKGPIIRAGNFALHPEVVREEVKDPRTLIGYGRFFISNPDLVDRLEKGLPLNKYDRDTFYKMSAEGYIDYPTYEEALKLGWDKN

Tests used:
Assay in all cases: co-IP; TAP pull-down: extracts of yeast cells expressing a TAP-tagged protein and tagged Gis1 or Gis1 deletion protein incubated with IgG-Sepharose beads, 4 °C; Western blot with anti-TAP, anti-FLAG or anti-Myc
[1] = molecular target: T1, TAP-tagged Mot3 (S. cerevisiae) (UniProt P54785)
T1 sequence: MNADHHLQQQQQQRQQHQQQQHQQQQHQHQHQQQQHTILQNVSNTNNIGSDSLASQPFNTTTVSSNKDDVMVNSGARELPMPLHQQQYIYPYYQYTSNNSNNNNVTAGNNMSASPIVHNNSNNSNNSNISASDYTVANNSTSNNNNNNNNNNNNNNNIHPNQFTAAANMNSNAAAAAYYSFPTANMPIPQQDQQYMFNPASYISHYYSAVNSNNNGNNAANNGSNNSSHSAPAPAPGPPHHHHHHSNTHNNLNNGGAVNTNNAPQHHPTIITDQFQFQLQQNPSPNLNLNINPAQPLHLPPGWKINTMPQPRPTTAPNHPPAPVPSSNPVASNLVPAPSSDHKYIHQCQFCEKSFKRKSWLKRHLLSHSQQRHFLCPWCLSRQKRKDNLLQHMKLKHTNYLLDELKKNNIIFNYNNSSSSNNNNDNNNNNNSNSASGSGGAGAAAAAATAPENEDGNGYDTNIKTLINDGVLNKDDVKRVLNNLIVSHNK

[2] = molecular target: TAP-tagged Oye2 (S. cerevisiae) (UniProt Q03558)
[3] = molecular target: T2, TAP-tagged Pbp4 (S. cerevisiae) (UniProt Q07362)
T2 sequence: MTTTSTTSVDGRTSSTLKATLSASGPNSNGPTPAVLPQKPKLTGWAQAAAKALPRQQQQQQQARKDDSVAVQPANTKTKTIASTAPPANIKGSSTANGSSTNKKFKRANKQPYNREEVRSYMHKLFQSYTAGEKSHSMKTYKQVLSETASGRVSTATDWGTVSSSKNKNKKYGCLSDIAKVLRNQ

binding [1]: binds
binding [2]: binds
binding [3]: binds
B1: FLAG-tagged Gis1 (protein, UniProt Q03833 1-894)
chain: MEIKPVEVIDGVPVFKPSMMEFANFQYFIDEITKFGIENGIVKVIPPKEWLELLEGSPPAESLKTIQLDSPIQQQAKRWDKHENGVFSIENEYDNKSYNLTQWKNLAESLDSRISQGDFNDKTLKENCRVDSQQDCYDLAQLQILESDFWKTIAFSKPFYAVDENSSIFPYDLTLWNLNNLPDSINSSNRRLLTGQSKCIFPWHLDEQNKCSINYLHFGAPKQWYSIPSANTDQFLKILSKEPSSNKENCPAFIRHQNIITSPDFLRKNNIKFNRVVQFQHEFIITFPYCMYSGFNYGYNFGESIEFILDQQAVVRKQPLKCGCGNKKEERKSGPFSNLSYDSNESEQRGSITDNDNDLFQKVRSFDELLNHSSQELQNLEDNKNPLFSNINMNRPQSSSLRSTTPNGVNQFLNMNQTTISRISSPLLSRMMDLSNIVEPTLDDPGSKFKRKVLTPQLPQMNIPSNSSNFGTPSLTNTNSLLSNITATSTNPSTTTNGSQNHNNVNANGINTSAAASINNNISSTNNSANNSSSNNNVSTVPSSMMHSSTLNGTSGLGGDNDDNMLALSLATLANSATASPRLTLPPLSSPMNPNGHTSYNGNMMNNNSGNGSNGSNSYSNGVTTAAATTTSAPHNLSIVSPNPTYSPNPLSLYLTNSKNPLNSGLAPLSPSTSNIPFLKRNNVVTLNISREASKSPISSFVNDYRSPLGVSNPLMYSSTINDYSNGTGIRQNSNNINPLDAGPSFSPLHKKPKILNGNDNSNLDSNNFDYSFTGNKQESNPSILNNNTNNNDNYRTSSMNNNGNNYQAHSSKFGENEVIMSDHGKIYICRECNRQFSSGHHLTRHKKSVHSGEKPHSCPRCGKRFKRRDHVLQHLNKKIPCTQEMENTKLAES
